Consider one substance from publication PMC11919600.

Sequences of proteins named here, by UniProt entry; tags and fusion partners are left off.
UniProt P21926: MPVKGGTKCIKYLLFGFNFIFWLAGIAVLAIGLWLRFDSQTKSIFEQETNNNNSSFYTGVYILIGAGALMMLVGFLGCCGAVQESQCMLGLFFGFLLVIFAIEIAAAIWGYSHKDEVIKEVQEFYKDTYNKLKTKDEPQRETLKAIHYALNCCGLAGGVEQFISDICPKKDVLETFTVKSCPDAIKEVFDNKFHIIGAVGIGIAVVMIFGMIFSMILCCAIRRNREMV
UniProt Q99816: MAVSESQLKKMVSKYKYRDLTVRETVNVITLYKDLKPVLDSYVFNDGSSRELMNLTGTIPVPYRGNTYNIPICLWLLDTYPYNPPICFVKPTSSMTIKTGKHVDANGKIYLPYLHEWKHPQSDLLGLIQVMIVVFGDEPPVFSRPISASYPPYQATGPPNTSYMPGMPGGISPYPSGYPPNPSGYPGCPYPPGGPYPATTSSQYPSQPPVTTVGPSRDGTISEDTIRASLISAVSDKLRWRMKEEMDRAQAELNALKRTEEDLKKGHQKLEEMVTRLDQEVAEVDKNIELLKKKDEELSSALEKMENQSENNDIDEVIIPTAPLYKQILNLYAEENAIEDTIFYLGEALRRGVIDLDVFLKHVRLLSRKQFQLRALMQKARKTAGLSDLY

The target of experiment [1] is CD9 with a C-terminal RFP tag (UniProt P21926). The experiment can be described thus: co-IP; RFP-Trap magnetic agarose beads with whole-cell lysates of CD9-RFP cells (HEK293 WT lysate and PBS as controls); NP-40 lysis buffer (50 mM Tris-Cl pH 8.0, 150 mM NaCl, 0.5% NP-40); 1 h, 4 °C; immunoblot. A general note: In western blotting, separated proteins are transferred to a membrane and probed.

For experiment [2], the target named is tetraspanin CD9 (endogenous) (human (endogenous in HEK293)) (UniProt P21926). The experiment can be described thus: co-IP; anti-CD9 Dynabeads with whole-cell lysates of HEK293 WT or CD9-RFP cells; NP-40 lysis buffer (50 mM Tris-Cl pH 8.0, 150 mM NaCl, 0.5% NP-40); 1 h, 4 °C; immunoblot.

These are yes or no findings as the source states them, for the method shown. Binding seen in cells or lysates may run through a third protein. Some entries that bind do so weakly or less than the wild type.

Consider TSG101 (from UniProt Q99816 1-390), for which the binding entry in experiment [1] and in experiment [2] was “binds” in each case.
